In all, about 300,000 compounds went through this assay and about 5,400 (1.8%) were called active. The inconclusive results got no clear call from the source; some entries with a clear call stand among them for comparison. The call rests on the fitted dose curve; tested in HEK293 cells. Potencies beside an inconclusive call are fits to weak or partial responses and may not hold up.
Assay: qHTS for inhibitors of binding or entry into cells for Marburg Virus
Conditions: Marburg virus pseudotyped entry inhibition, cell reporter; activity change, negative = inhibition: at 37.8 µM (top of the series) unless noted
On the % scale 0 is the no-effect control and ±100 the full control effect; potency means the concentration at half of the fitted maximal effect.

Q: With `Cc1cccc(OCC(=O)NC2CCCCCC2)c1C` as the molecule, how does the Potency read?
A: inconclusive: 1.41 µM [activator, partial curve, poor fit]

Q: Which “activity change, negative = inhibition” value does the source give for `COc1ccc(CCNC(=O)CCCN2C(=O)c3ccccc3C2=O)cc1` here?
A: inactive: -5.12% [at 46.1 µM]

Q: Which Potency does the source give for `Cc1cccc(CSCc2nnc(N)s2)c1` here?
A: inconclusive: 1.78 µM [inhibitor, full curve, poor fit]

Q: With `COc1ccc(Nc2oc(COc3ccc(OC)cc3)nc2C#N)cc1` as the molecule, how does the Potency read?
A: active: 6.51 µM

Q: For `Cc1ccnc(NC(=O)c2ccc(C(=O)c3ccccc3)cc2)c1`, which Potency is on record?
A: active: 6.31 µM

Q: Which “activity change, negative = inhibition” value does the source give for `CC(/C=C/c1ccccc1)=N\NC(=O)Cn1cncn1` here?
A: inactive: 0.794% [at 46.1 µM]

Q: For `NNC(=O)c1ccc2c(c1)S(=O)(=O)NNC2=O`, which “activity change, negative = inhibition” value is on record?
A: inactive: 4.16% [at 46.1 µM]

Q: For `COc1[nH]c2ccc(F)cc2c1C(=O)OCC1CCN(CCNS(C)(=O)=O)CC1`, which Potency is on record?
A: inconclusive: 35.5 µM [inhibitor, single point]

Q: Which “activity change, negative = inhibition” value does the source give for `CSc1nnc(C)c(/C=C/Nc2ccc(F)cc2)n1` here?
A: inactive: -3.21%

Q: Which Potency does the source give for `CCOC(=O)C1CCN(Cc2ccc(O)c3ncccc23)CC1` here?
A: inconclusive: 18.3 µM [inhibitor, partial curve, poor fit]

Q: With `N#C/C(=C(/O)COC(=O)CSc1ccc2ccccc2c1)c1nc2ccccc2[nH]1` as the molecule, how does the Potency read?
A: inconclusive: 3.98 µM [inhibitor, full curve, poor fit]

Q: Which Potency does the source give for `CCN=c1scc(C)n1/N=C/c1ccc(O)c(O)c1O` here?
A: inconclusive: 35.5 µM [inhibitor, partial curve, poor fit]

Q: For `COc1ccc(CCn2c(-c3cc([N+](=O)[O-])cc([N+](=O)[O-])c3)nc3nc4ccccc4nc32)cc1`, which Potency is on record?
A: inconclusive: 0.447 µM [inhibitor, full curve, poor fit]

Q: Which “activity change, negative = inhibition” value does the source give for `CCOc1ccc(NC(=O)Cn2c(=O)n(CCCCCC(=O)NCc3ccccc3)c(=O)c3sccc32)cc1` here?
A: inactive: 15.6% [at 46.1 µM]

Q: Which Potency does the source give for `COc1ccc(C(=O)c2cnc3ccccc3c2-c2ccccc2)cc1` here?
A: inconclusive: 29.1 µM [inhibitor, single point]

Q: For `CCCCCCCn1c(=N)n(CC(O)c2ccco2)c2ccccc21` (centres undefined), which Potency is on record?
A: active: 2.82 µM

Q: With `O=C(O)CSC1=NC(=Nc2ccc(Cl)cc2)C2(CCCCC2)N1c1cccc(C(=O)O)c1` as the molecule, how does the Potency read?
A: inconclusive: 0.794 µM [activator, partial curve, poor fit]

Q: For `CC(NC(=O)c1ccc2c(=O)n3c(nc2c1)CCC3)c1ccc(S(N)(=O)=O)cc1` (centres undefined), which Potency is on record?
A: inconclusive: 7.94 µM [inhibitor, partial curve]

Q: For `O=C(Nc1nc2c(F)cc(F)cc2s1)c1ccccn1`, which Potency is on record?
A: inconclusive: 3.98 µM [inhibitor, full curve, poor fit]

Q: For `CCCn1c(C)cc(C(=O)COC(=O)CN=C2NS(=O)(=O)c3ccccc32)c1C`, which Potency is on record?
A: inconclusive: 3.55 µM [activator, full curve, poor fit]

Q: With `Cc1ccc(C(C(=O)NCc2ccco2)N(C(=O)CNC(=O)c2cccs2)c2c(C)cc(C)cc2C)cc1` (centres undefined) as the molecule, how does the Potency read?
A: inconclusive: 7.3 µM [inhibitor, partial curve]

Q: For `CCc1ccc(C2CC(=O)c3c([nH]c(C(=O)OC4CCCC4)c3C)C2)cc1` (centres undefined), which “activity change, negative = inhibition” value is on record?
A: inactive: 24.9% [at 46.1 µM]

Q: Which Potency does the source give for `COc1cccc(-c2nc(CS(=O)(=O)CC(=O)N3CCN(c4cc(C)ccc4C)CC3)c(C)o2)c1` here?
A: inconclusive: 25.1 µM [inhibitor, single point]

Q: With `CC(C)C1Oc2ccccc2N(CC(=O)N2CCOCC2)C1=O` (centres undefined) as the molecule, how does the “activity change, negative = inhibition” value read?
A: inactive: 4.97% [at 46.1 µM]

Q: With `N#Cc1c(-c2ccccc2)nc2n(c1=O)CCS2` as the molecule, how does the “activity change, negative = inhibition” value read?
A: inactive: 0%

Q: Which Potency does the source give for `CCOC(=O)C(C)(C)n1nnc(-c2ccc([N+](=O)[O-])cc2)n1` here?
A: inconclusive: 35.5 µM [activator, single point]

Q: With `COc1ccc(-c2c(C)n([O-])c3c([n+]2=O)CCCCC3)cc1OC` as the molecule, how does the Potency read?
A: inconclusive: 11.2 µM [inhibitor, partial curve, poor fit]

Q: With `O=C(Cc1cc(C(=O)O)c2ccccc2n1)Nc1ccccc1` as the molecule, how does the Potency read?
A: inconclusive: 22.4 µM [inhibitor, partial curve, poor fit]

Q: With `COc1cnc(-c2ccccn2)nc1Sc1cccc(Cl)c1` as the molecule, how does the Potency read?
A: inconclusive: 20.6 µM [inhibitor, single point]

Q: With `Cc1oc(-c2cccc(Cl)c2)nc1CN1CCCC(C(=O)NCCCN2CCOCC2)C1` (centres undefined) as the molecule, how does the Potency read?
A: inconclusive: 7.08 µM [inhibitor, full curve, poor fit]

Q: With `Cc1ccc(C)c(NC(=O)CN(C)C(=O)c2ccccc2OCc2ccccc2Cl)c1` as the molecule, how does the Potency read?
A: inconclusive: 22.4 µM [inhibitor, single point]

Q: Which Potency does the source give for `C=CCn1c(C(C)NC(=O)c2ccccc2C)n[nH]c1=S` (centres undefined) here?
A: inconclusive: 17.8 µM [activator, single point]

Q: With `O=C1OC=NC1=Cc1ccccc1` as the molecule, how does the Potency read?
A: inconclusive: 2.82 µM [inhibitor, single point]

Q: With `COc1ccc2nc(/C=N/NC(=O)[C@@H]3CCCN3C(=O)OC(C)(C)C)ccc2c1` as the molecule, how does the Potency read?
A: inconclusive: 2.24 µM [activator, single point]

Q: With `CC(=O)c1ccc(C(=O)NC2CC(C)(C)Cc3c2cnn3-c2ccccc2)cc1` (centres undefined) as the molecule, how does the “activity change, negative = inhibition” value read?
A: inactive: 24.9%

Q: Which Potency does the source give for `CCc1ccc(Nc2nnc(SCn3nnc4ccccc4c3=O)s2)cc1` here?
A: inconclusive: 31.6 µM [activator, single point]

Q: For `COc1cccc(C(=O)Nc2ccc3[nH]ncc3c2)c1`, which Potency is on record?
A: inconclusive: 10 µM [inhibitor, partial curve]

Q: With `CCOc1ccc(-c2ccc(/C=C3/C(=N)N4C(C)=CSC4=NC3=O)o2)c([N+](=O)[O-])c1` as the molecule, how does the Potency read?
A: inconclusive: 17.8 µM [inhibitor, partial curve, poor fit]

Q: For `O=C(Oc1ccc(OC(=O)N2CCCCC2)cc1)c1ccccc1`, which Potency is on record?
A: inconclusive: 7.3 µM [activator, partial curve]

Q: For `CCn1c2ccccc2c2cc(NC(C)=O)ccc21`, which “activity change, negative = inhibition” value is on record?
A: inactive: 18.3% [at 46.1 µM]

Q: For `c1ccc(Cn2c(NCc3ccccn3)nc3ccccc32)cc1`, which Potency is on record?
A: inconclusive: 22.4 µM [inhibitor, partial curve, poor fit]

Q: Which Potency does the source give for `Cc1ccc(NC(=O)CSc2nc3ccccc3c(=O)n2CCCC(=O)NCCCN2CCOCC2)cc1C` here?
A: inconclusive: 31.6 µM [inhibitor, single point]

Q: For `O=C(Nc1ccc([N+](=O)[O-])cn1)c1ccc2c(c1)OCO2`, which Potency is on record?
A: inconclusive: 2.82 µM [activator, partial curve, poor fit]

Q: For `O=C(COC(=O)C1CC1)c1c[nH]c2ccccc12`, which Potency is on record?
A: inconclusive: 1.16 µM [activator, single point]

Q: With `COc1ccc(CNC(C)C2COc3ccccc3O2)c(OC)c1` (centres undefined) as the molecule, how does the Potency read?
A: active: 11.2 µM

Q: With `COc1ccc(OCc2ccc(-c3nc(C#N)c(NC(C)c4ccccc4)o3)o2)cc1` (centres undefined) as the molecule, how does the “activity change, negative = inhibition” value read?
A: inactive: -1.6% [at 46.1 µM]

Q: For `CCOC(=O)CNC(=O)COc1ccc(Cl)cc1Br`, which Potency is on record?
A: inconclusive: 29.1 µM [activator, single point]

Q: For `O=S(=O)(Nc1cccc(-c2cn3cccnc3n2)c1)c1ccc(Cl)cc1`, which “activity change, negative = inhibition” value is on record?
A: inactive: -0.457%

Q: Which Potency does the source give for `O=C(CC(=O)c1c(F)cccc1Cl)c1ccccc1O` here?
A: inconclusive: 6.31 µM [activator, single point]

Q: For `Nc1nc2c(C(=O)N3CCOCC3)nnn2c2ccccc12`, which “activity change, negative = inhibition” value is on record?
A: inactive: -11.6% [at 46.1 µM]

Q: For `Cc1ccc(C(=O)Nc2ccccc2-c2ccccc2)o1`, which “activity change, negative = inhibition” value is on record?
A: inactive: -4.93%

Q: Which “activity change, negative = inhibition” value does the source give for `COc1ccc(/C=C/C(=O)NC(C)(C)C)cc1S(=O)(=O)N1CCOCC1` here?
A: inactive: 7.44%

Q: With `O=C(CN1C(=O)CSc2ccc(S(=O)(=O)N3CCOCC3)cc21)NCc1cccnc1` as the molecule, how does the “activity change, negative = inhibition” value read?
A: inactive: 10.4% [at 46.1 µM]

Q: Which Potency does the source give for `O=C1C2CC=CCC2C(=O)N1Nc1ccccc1` (centres undefined) here?
A: inconclusive: 14.1 µM [inhibitor, single point]

Q: For `COc1ccccc1N1CCN(c2nc(C)cc(C)c2C#N)CC1`, which Potency is on record?
A: inconclusive: 6.31 µM [inhibitor, single point]

Q: For `O=c1[nH]c(=S)n(Cc2ccco2)c(O)c1C=NCc1cccs1`, which “activity change, negative = inhibition” value is on record?
A: inactive: 0.955%

Q: With `CC(CCc1ccccc1)NC(=O)CSc1ccccc1` (centres undefined) as the molecule, how does the Potency read?
A: inconclusive: 1.41 µM [inhibitor, partial curve, poor fit]

Q: With `Cn1nccc1C(=O)N1CCN(C23CC4CC(CC(C4)C2)C3)CC1` as the molecule, how does the “activity change, negative = inhibition” value read?
A: inactive: 0.918% [at 46.1 µM]

Q: For `CN(C)c1nc(NC(C)(C)C)nc(NC(C)(C)C)n1`, which Potency is on record?
A: inconclusive: 2.82 µM [inhibitor, partial curve, poor fit]

Q: For `COc1nc(Oc2ccc(/C=N/O)cc2)nc(N(C)C)n1`, which Potency is on record?
A: inconclusive: 10.3 µM [activator, partial curve, poor fit]

Q: With `Cc1ccc2ncccc2c1N` as the molecule, how does the Potency read?
A: inconclusive: 0.501 µM [activator, single point]

Q: For `COc1cccc(-c2nn(-c3ccccc3)cc2CN2CCCO2)c1`, which Potency is on record?
A: inconclusive: 10 µM [inhibitor, partial curve, poor fit]

Q: With `O=C(CSc1nc2ccccc2[nH]1)Nc1nc(-c2cccc(Br)c2)cs1` as the molecule, how does the “activity change, negative = inhibition” value read?
A: inactive: 11.4%

Q: With `COc1ccc(/C=C/C(=O)Nc2cccc(S(=O)(=O)N3CCOCC3)c2)cc1OC` as the molecule, how does the Potency read?
A: inconclusive: 35.5 µM [inhibitor, partial curve, poor fit]

Q: For `OC(C1=NC2C=CC=CC2=N1)C(O)C(O)C(O)C1=NC2C=CC=CC2=N1` (centres undefined), which Potency is on record?
A: inconclusive: 35.5 µM [inhibitor, single point]

Q: Which “activity change, negative = inhibition” value does the source give for `O=C(Nc1nc(-c2cccc3ccccc23)cs1)c1ccc2c(c1)S(=O)(=O)c1ccccc1C2=O` here?
A: inactive: 11.8% [at 46.1 µM]

Q: For `O=C1C[C@@H](c2ccccc2)n2nc(NS(=O)(=O)c3ccccc3)nc2N1`, which Potency is on record?
A: inconclusive: 3.55 µM [activator, single point]

Q: With `O=C(COc1coc(CN2CCN(c3ccccc3F)CC2)cc1=O)NC1CCCC1` as the molecule, how does the Potency read?
A: inconclusive: 35.5 µM [inhibitor, single point]

Q: With `CC1=C(C(=O)OC2CCCCCCC2)C(c2cccc(O)c2)NC(=O)N1` (centres undefined) as the molecule, how does the Potency read?
A: inconclusive: 29.1 µM [inhibitor, single point]
